# Results as given in the supplement of paper PMC10849652.
# By UniProt entry, the sequences of proteins in these tests, tags left out. Where a name states a change or a piece, a line headed by the entry shows the natural chain unless it says otherwise.
# UniProt Q96JJ7: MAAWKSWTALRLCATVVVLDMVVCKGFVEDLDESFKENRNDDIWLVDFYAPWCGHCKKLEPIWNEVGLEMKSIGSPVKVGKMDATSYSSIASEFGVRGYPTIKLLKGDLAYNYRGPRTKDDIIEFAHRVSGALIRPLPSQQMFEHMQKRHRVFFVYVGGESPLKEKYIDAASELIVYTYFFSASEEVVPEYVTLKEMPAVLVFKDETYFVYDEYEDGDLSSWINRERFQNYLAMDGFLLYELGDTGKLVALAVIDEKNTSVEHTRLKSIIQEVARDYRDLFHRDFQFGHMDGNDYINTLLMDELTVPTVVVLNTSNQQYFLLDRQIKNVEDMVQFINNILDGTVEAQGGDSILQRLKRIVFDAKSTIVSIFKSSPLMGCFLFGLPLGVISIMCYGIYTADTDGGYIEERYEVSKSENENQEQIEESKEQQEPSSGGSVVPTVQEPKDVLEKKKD
# UniProt Q5T3F8: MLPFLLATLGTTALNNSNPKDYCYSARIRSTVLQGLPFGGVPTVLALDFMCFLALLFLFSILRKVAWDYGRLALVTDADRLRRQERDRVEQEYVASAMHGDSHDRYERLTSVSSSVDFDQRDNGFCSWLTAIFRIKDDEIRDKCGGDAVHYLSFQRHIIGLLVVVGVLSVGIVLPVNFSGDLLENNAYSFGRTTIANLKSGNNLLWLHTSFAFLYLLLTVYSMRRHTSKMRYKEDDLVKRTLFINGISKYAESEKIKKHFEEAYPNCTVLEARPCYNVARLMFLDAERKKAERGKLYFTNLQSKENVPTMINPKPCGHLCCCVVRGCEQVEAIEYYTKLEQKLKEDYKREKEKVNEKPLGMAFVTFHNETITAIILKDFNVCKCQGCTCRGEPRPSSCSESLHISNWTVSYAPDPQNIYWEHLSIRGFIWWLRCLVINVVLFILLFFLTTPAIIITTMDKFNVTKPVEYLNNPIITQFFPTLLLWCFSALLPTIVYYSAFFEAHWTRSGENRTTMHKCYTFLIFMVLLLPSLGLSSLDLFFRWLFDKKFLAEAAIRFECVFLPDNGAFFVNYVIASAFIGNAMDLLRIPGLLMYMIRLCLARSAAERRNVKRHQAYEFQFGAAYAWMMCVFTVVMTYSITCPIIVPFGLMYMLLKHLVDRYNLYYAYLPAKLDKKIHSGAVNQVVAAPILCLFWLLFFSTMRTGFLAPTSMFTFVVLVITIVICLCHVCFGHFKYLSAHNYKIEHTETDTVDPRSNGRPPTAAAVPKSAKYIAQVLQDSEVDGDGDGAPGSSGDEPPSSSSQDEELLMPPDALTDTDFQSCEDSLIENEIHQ
# UniProt Q9UKE5: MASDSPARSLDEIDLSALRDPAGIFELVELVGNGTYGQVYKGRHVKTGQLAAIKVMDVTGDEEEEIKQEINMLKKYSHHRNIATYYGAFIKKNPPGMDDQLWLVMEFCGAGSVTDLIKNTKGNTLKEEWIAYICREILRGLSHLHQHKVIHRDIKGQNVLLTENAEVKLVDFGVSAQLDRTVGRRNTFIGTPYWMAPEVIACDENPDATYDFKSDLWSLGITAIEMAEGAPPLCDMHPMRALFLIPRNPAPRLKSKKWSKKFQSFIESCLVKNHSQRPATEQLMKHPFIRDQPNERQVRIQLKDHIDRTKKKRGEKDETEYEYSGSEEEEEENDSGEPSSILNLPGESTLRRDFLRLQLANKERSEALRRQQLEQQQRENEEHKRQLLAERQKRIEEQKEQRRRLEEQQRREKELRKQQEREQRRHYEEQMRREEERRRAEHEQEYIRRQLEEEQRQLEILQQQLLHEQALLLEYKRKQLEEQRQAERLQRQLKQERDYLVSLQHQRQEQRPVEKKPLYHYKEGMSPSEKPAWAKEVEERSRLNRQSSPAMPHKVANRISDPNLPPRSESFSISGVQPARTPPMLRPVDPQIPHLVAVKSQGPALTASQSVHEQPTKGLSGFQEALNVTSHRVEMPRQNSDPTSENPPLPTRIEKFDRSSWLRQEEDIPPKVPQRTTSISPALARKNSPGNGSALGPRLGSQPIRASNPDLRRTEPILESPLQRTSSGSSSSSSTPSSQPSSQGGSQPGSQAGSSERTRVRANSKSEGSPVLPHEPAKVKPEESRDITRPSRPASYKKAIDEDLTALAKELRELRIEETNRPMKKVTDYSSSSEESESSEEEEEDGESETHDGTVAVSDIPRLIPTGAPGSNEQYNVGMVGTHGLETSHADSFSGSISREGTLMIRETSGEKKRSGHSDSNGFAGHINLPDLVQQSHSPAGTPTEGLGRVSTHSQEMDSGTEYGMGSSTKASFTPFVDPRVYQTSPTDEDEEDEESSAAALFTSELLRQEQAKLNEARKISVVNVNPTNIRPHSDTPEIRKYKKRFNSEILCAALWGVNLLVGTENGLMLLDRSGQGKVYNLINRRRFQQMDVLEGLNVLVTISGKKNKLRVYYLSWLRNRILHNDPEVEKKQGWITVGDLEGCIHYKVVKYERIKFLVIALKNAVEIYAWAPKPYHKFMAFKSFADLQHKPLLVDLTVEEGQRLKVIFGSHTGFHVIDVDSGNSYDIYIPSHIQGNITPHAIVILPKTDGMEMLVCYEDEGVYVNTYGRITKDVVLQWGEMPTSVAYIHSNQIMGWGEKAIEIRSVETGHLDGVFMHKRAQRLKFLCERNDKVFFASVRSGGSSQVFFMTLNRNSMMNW
# UniProt O43399: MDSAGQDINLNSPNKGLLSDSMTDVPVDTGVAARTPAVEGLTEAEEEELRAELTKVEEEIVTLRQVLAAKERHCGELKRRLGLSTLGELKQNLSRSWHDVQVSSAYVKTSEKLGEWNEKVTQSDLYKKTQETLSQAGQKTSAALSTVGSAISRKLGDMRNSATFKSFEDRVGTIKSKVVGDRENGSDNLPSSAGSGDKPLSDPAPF
# UniProt P06753, whole entry, looked up: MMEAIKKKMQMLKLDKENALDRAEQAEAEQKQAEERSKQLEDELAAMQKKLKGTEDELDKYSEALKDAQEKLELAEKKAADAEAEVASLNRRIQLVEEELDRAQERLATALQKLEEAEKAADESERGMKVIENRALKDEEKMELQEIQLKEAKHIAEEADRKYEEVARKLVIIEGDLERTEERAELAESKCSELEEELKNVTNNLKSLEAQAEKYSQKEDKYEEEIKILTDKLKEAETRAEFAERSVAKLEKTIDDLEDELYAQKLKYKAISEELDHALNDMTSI
# UniProt O94826, whole entry, looked up: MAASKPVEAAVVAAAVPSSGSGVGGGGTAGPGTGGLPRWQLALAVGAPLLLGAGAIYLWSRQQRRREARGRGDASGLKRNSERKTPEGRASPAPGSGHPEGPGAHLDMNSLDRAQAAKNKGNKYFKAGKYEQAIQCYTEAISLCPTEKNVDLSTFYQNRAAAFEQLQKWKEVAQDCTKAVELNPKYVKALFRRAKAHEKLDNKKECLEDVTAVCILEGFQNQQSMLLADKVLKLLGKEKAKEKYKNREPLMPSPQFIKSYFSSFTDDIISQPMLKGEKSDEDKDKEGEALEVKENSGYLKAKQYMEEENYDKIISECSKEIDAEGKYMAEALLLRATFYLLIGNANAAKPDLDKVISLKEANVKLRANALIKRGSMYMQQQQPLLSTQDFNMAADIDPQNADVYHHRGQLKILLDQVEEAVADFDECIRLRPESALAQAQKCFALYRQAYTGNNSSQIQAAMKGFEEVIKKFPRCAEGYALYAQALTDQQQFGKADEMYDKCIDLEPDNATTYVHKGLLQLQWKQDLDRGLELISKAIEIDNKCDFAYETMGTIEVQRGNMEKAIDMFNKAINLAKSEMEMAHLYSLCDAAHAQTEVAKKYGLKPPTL
# UniProt Q86XT9, whole entry, looked up: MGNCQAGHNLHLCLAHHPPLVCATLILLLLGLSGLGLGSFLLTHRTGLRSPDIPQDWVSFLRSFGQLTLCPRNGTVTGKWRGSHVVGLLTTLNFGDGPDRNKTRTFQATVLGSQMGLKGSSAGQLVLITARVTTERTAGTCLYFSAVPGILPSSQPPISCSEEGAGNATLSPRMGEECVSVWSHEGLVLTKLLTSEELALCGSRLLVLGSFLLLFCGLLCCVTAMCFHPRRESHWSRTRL
# UniProt P51580: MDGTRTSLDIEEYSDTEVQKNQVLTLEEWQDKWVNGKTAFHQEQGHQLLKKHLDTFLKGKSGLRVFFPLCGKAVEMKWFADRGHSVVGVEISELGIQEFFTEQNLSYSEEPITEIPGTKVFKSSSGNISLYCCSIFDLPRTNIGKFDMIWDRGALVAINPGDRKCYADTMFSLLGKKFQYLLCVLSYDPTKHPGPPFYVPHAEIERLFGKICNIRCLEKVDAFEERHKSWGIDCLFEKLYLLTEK
# UniProt Q53FA7: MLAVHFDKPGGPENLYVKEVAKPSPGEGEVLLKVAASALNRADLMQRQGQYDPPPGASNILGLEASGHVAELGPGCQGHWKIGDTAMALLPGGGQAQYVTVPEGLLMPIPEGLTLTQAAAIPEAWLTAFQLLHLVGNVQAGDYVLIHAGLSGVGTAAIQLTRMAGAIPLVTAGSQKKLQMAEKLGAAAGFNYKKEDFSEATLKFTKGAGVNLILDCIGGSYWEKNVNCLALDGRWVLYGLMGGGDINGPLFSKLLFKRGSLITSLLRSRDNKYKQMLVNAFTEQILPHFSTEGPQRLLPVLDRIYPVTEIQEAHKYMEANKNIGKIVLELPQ
# UniProt O60704: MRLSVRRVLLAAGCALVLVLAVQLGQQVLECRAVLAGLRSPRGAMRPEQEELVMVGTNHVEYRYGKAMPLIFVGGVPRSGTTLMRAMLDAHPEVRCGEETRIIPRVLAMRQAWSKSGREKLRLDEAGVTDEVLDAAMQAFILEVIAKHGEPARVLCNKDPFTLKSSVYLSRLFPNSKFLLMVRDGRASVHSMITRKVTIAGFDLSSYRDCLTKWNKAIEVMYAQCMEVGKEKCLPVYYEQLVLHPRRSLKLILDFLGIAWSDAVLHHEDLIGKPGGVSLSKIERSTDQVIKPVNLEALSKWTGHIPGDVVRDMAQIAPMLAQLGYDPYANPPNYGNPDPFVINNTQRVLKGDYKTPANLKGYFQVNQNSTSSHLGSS
# UniProt Q02880: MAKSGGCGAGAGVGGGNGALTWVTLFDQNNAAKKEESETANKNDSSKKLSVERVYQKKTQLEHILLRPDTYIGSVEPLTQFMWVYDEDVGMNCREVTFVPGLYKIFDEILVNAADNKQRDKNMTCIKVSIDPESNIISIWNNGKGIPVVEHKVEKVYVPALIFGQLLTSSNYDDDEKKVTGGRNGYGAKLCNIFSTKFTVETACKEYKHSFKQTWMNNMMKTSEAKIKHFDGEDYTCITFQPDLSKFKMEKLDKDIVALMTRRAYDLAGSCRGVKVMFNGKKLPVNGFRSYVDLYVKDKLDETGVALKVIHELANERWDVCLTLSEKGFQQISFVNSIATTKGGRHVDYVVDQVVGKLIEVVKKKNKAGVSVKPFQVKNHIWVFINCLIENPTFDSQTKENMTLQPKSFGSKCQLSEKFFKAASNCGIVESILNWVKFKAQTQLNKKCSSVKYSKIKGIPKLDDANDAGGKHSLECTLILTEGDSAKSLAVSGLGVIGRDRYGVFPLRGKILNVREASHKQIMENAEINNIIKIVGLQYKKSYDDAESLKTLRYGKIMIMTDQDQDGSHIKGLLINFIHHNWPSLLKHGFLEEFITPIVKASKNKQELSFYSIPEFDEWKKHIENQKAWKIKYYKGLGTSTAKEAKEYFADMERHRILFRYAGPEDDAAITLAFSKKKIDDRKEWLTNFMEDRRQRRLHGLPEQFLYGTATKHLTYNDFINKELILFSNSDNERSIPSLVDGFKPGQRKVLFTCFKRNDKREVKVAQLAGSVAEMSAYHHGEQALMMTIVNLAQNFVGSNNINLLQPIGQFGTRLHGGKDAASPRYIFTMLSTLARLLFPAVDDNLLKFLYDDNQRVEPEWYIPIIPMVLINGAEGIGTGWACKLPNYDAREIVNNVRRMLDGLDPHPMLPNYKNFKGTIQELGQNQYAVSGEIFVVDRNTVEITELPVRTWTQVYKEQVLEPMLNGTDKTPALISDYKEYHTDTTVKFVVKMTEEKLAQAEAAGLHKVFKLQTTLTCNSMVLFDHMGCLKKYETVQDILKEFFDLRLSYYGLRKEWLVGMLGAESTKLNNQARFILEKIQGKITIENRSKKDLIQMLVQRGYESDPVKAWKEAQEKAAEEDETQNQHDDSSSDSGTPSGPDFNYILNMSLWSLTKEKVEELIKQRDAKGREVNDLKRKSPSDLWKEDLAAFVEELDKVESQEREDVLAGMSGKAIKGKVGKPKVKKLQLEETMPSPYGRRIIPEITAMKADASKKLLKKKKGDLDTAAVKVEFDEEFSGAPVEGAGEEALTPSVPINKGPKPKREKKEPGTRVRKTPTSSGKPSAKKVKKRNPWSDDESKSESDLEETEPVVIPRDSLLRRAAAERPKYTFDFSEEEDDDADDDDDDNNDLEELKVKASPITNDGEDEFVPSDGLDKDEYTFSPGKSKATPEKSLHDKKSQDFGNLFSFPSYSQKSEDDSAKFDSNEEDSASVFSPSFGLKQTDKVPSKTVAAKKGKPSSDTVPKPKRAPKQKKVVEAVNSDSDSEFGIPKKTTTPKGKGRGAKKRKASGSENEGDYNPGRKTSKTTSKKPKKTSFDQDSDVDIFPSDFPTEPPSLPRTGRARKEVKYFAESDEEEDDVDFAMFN
# This is one part of the list.
# Compound: CCn1c(C(=O)N(C2CC2)C2CC2)cc2c3c(ncn3C)c(Nc3cc(C)n(C)n3)nc21
# Test: log2 fold change, soluble protein after heating vs DMSO (PISA); higher = thermal stabilisation; K562 lysate, 10 uM; active = over 0.2 and 3.5 SD of the protein, either way, in both replicates (recomputed)
# Procedure, shortened: (§1)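 Dounce homogenisation of K562 pellets in PBS pH 7.4 with 1 mM MgCl2 produced a crude extract, used at 1 mg/mL protein. Exposure to 10 μM compound lasted 30 min, and aliquots were then heated for 3 min across 48°C-58°C, pooled and brought to 0.5% NP-40 at 4°C. The supernatant after 21,000xg for 90 min was quantified by TMTpro 16plex LC-MS/MS with channel sums equalised. Duplicate values are given as log-two fold change in thermal stability relative to solvent controls.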
row,Target,log2 fold change
1,TMX3 (UniProt Q96JJ7),inactive: 0.024
2,TOR3A (UniProt Q9H497),inactive: -0.006
3,TMEM63B (UniProt Q5T3F8),inactive: 0.074
4,TPP2 (UniProt P29144),inactive: 0.009
5,TPP1 (UniProt O14773),inactive: 0.005
6,TNIK isoform 4 (UniProt Q9UKE5),inactive: 0.011
7,TPD52L2 isoform 7 (UniProt O43399),inactive: 0.011
8,TMEM38B (UniProt Q9NVV0),inactive: -0.08
9,TRA2A (UniProt Q13595),inactive: 0.073
10,TOMM22 (UniProt Q9NS69),inactive: 0.011
11,TPM1 isoform 4 (UniProt P09493),inactive: 0.013
12,TOM1 isoform 2 (UniProt O60784),inactive: -0.029
13,TMOD3 (UniProt Q9NYL9),inactive: -0.042
14,TMEM97 (UniProt Q5BJF2),inactive: -0.048
15,TMEM68 (UniProt Q96MH6),inactive: 0.033
16,TPM3 isoform 2 (UniProt P06753),inactive: 0.026
17,TPX2 (UniProt Q9ULW0),inactive: -0.035

row,Target,log2 fold change
1,TOP1 (UniProt P11387),inactive: 0.019
2,TNIP1 (UniProt Q15025),inactive: -0.007
3,TOMM70 (UniProt O94826),inactive: 0.03
4,TMEM219 (UniProt Q86XT9),inactive: -0.059
5,TPMT (UniProt P51580),inactive: 0.036
6,TP53I3 (UniProt Q53FA7),inactive: 0.023
7,TPST2 (UniProt O60704),inactive: -0.011
8,TOP2B isoform 2 (UniProt Q02880),inactive: -0.003
9,TPM3 (UniProt P06753),inactive: 0.013
10,TPM4 isoform 2 (UniProt P67936),inactive: 0.048
11,TPI1 (UniProt P60174),inactive: -0.037
12,TMEM87B (UniProt Q96K49),inactive: -0.006
13,TNFRSF1B (UniProt P20333),inactive: -0.023
14,TMEM245 (UniProt Q9H330),inactive: 0.1
15,TONSL (UniProt Q96HA7),inactive: 0.017
16,TMOD1 (UniProt P28289),inactive: -0.024

# Compound: CCn1cc(-c2ccnc3[nH]c(-c4cccc(CN(C)C)c4)cc23)c(-c2ccc(NC(=O)N(C)C)cc2)n1
# Test: as above
# Procedure, shortened: as §1
row,Target,log2 fold change
1,TMX3 (UniProt Q96JJ7),inactive: -0.132
2,TOR3A (UniProt Q9H497),inactive: -0.123
3,TMEM63B (UniProt Q5T3F8),inactive: -0.092
4,TPP2 (UniProt P29144),inactive: 0.025
5,TPP1 (UniProt O14773),inactive: -0.025
6,TNIK isoform 4 (UniProt Q9UKE5),inactive: 0.071
7,TPD52L2 isoform 7 (UniProt O43399),inactive: -0.14
8,TMEM38B (UniProt Q9NVV0),inactive: -0.27
9,TRA2A (UniProt Q13595),inactive: -0.023
10,TOMM22 (UniProt Q9NS69),inactive: -0.064
11,TPM1 isoform 4 (UniProt P09493),inactive: 0.106
12,TOM1 isoform 2 (UniProt O60784),inactive: -0.03
13,TMOD3 (UniProt Q9NYL9),inactive: 0.004
14,TMEM97 (UniProt Q5BJF2),active: -0.327
15,TMEM68 (UniProt Q96MH6),inactive: -0.093
16,TPM3 isoform 2 (UniProt P06753),inactive: 0.196
17,TPX2 (UniProt Q9ULW0),inactive: 0.04

row,Target,log2 fold change
1,TOP1 (UniProt P11387),inactive: -0.003
2,TNIP1 (UniProt Q15025),inactive: -0.159
3,TOMM70 (UniProt O94826),inactive: 0.19
4,TMEM219 (UniProt Q86XT9),inactive: 0.06
5,TPMT (UniProt P51580),inactive: 0.02
6,TP53I3 (UniProt Q53FA7),inactive: -0.073
7,TPST2 (UniProt O60704),active: -0.851
8,TOP2B isoform 2 (UniProt Q02880),inactive: 0.209
9,TPM3 (UniProt P06753),inactive: 0.182
10,TPM4 isoform 2 (UniProt P67936),active: 0.525
11,TPI1 (UniProt P60174),inactive: -0.082
12,TMEM87B (UniProt Q96K49),inactive: 0.074
13,TNFRSF1B (UniProt P20333),inactive: -0.204
14,TMEM245 (UniProt Q9H330),inactive: -0.06
15,TONSL (UniProt Q96HA7),inactive: -0.021
16,TMOD1 (UniProt P28289),inactive: 0.041

# Compound: CN1CCC(CNc2ccc3ncc(-c4cccc(OC(F)(F)F)c4)n3n2)CC1
# Test: as above
# Procedure, shortened: as §1
row,Target,log2 fold change
1,TMX3 (UniProt Q96JJ7),inactive: 0.011
2,TOR3A (UniProt Q9H497),inactive: 0.057
3,TMEM63B (UniProt Q5T3F8),inactive: 0.074
4,TPP2 (UniProt P29144),inactive: -0.012
5,TPP1 (UniProt O14773),inactive: -0.018
6,TNIK isoform 4 (UniProt Q9UKE5),inactive: 0.099
7,TPD52L2 isoform 7 (UniProt O43399),inactive: 0.207
8,TMEM38B (UniProt Q9NVV0),inactive: 0.108
9,TRA2A (UniProt Q13595),inactive: 0.07
10,TOMM22 (UniProt Q9NS69),inactive: 0.014
11,TPM1 isoform 4 (UniProt P09493),inactive: -0.149
12,TOM1 isoform 2 (UniProt O60784),inactive: -0.017
13,TMOD3 (UniProt Q9NYL9),inactive: 0.017
14,TMEM97 (UniProt Q5BJF2),inactive: 0.173
15,TMEM68 (UniProt Q96MH6),inactive: 0.042
16,TPM3 isoform 2 (UniProt P06753),inactive: -0.179
17,TPX2 (UniProt Q9ULW0),inactive: -0.007

row,Target,log2 fold change
1,TOP1 (UniProt P11387),inactive: -0.005
2,TNIP1 (UniProt Q15025),inactive: 0.011
3,TOMM70 (UniProt O94826),inactive: -0.115
4,TMEM219 (UniProt Q86XT9),inactive: 0.061
5,TPMT (UniProt P51580),inactive: 0.002
6,TP53I3 (UniProt Q53FA7),inactive: 0.042
7,TPST2 (UniProt O60704),inactive: 0.188
8,TOP2B isoform 2 (UniProt Q02880),inactive: -0.077
9,TPM3 (UniProt P06753),inactive: -0.062
10,TPM4 isoform 2 (UniProt P67936),inactive: -0.231
11,TPI1 (UniProt P60174),inactive: 0.067
12,TMEM87B (UniProt Q96K49),inactive: -0.032
13,TNFRSF1B (UniProt P20333),inactive: 0.136
14,TMEM245 (UniProt Q9H330),inactive: 0.085
15,TONSL (UniProt Q96HA7),inactive: -0.03
16,TMOD1 (UniProt P28289),inactive: -0.031
